Results: the supplement of paper PMC3334620
Whole data set: some 33,000 sequences, median “E-score (-0.5 to 0.5)” near -0.0059, cut for the highest 2% near 0.26. The list shows a part of the results.

Target: T1, Cin5 (UniProt P40917)
T1 sequence: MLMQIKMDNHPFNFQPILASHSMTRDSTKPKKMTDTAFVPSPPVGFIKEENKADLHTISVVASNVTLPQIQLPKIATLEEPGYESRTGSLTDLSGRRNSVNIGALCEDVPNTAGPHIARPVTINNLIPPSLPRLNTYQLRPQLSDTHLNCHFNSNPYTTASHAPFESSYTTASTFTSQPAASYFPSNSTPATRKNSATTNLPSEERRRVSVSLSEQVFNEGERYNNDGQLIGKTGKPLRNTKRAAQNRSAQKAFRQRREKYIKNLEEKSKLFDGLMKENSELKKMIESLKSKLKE
Assay: PBM E-score (8-mer binding enrichment) (E-score (-0.5 to 0.5)); higher = stronger / more preferred TF binding
Settings: protein concentration: 100 nM; construct: GST-full length
How it was run: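 Bound GST-tagged yeast transcription factors, applied at about 100-200 nM to double-stranded universal all-10-mer Agilent arrays, were detected with fluorescent anti-GST. Scans were normalised with masliner. A modified Wilcoxon-Mann-Whitney statistic, the E-score, was assigned to each ungapped eight-base word pooled with its reverse complement by the Universal PBM Analysis Suite.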

Sequence | PBM E-score
TCGCGAAA | 0.151
CCGCATCG | -0.279
TACGAGAA | 0.0576
GCTTTTAA | -0.0582
TGAAATAA | 0.138
CTAAAATC | -0.0399
AACAGGAG | -0.0535
CGCGTGAC | -0.0643
GTGGTACA | -0.0413
GCCTCCAA | -0.162
AGACGAGC | -0.273
GCCGGAGA | -0.0706
CTGCGCTA | -0.0995
CCATGACG | -0.0398
GAATACCC | 0.00321
CTTTATAC | 0.0035
CGCCAGAC | -0.134
ACAAGTAA | 0.0192
CAGACTCC | -0.211
ACTAATCT | 0.128
CATCCGCC | 0.0814
AGGCTGGA | -0.204
ACACGATC | 0.0692
CCGTCATC | -0.075
ATGATTCA | -0.0169

Sequence | PBM E-score
AAGTTCGT | -0.0372
GAGCTGCA | -0.0506
AGATTAGA | -0.0761
ATGACCTA | 0.0938
CGCGCCCC | -0.107
CTATGATC | -0.0495
ACCCTGAG | -0.0935
ATAACTAG | 0.2
GACGCACA | -0.0151
ACCGGCTC | -0.167
ACACCTCA | 0.0284
ACTCTCGG | 0.0048
TCCGAAAA | -0.17
GAATCGGC | 0.0637
CACCCATA | 0.00193
GATGGACA | 0.0812
CAAAGACC | -0.15
CCAGGTTA | 0.0733
GTTCAAAA | -0.105
GTGAGAGA | -0.15
ACGTGACC | -0.0447
ACGCAGCA | -0.0778
GATAAGCA | 0.275
AGGCACAC | -0.217
CATCTGAG | 0.00866

Sequence | PBM E-score
AGGGGTGC | -0.088
CGATACTA | 0.219
AGCTTCGG | -0.187
ATGATTGC | 0.234
TGATGGCA | -0.112
CACTATCG | 0.0597
AGAAGATA | 0.188
CGTTTATA | 0.23
CCATTAAA | -0.0244
CTCCGCAA | -0.233
CACTGGCC | -0.2
CCTCGAGG | 0.0694
CTTCCGGC | 0.069
CCGAGTCC | -0.156
AAGATGCA | 0.216
TAATTGAA | -0.0513
AGACGAAA | 0.205
CCAGCGCC | -0.312
GATCCCGC | 0.156
CGAGATCG | -0.0928
AATCCCAT | 0.141
ATAAATGA | 0.156
CGCGTCCA | -0.0924
GGATACCC | -0.0478
CGCCTTTC | -0.135

Sequence | PBM E-score
ATGCACCA | -0.112
AACTTTAC | 0.039
AAGCGAAT | 0.223
CCGGTAGG | -0.163
GCTTCTCA | -0.0109
CACTCGGC | 0.0804
CCTCGGGA | -0.13
AACTACTC | 0.177
AGTCTTTC | -0.154
AGCTTCAT | 0.103
CCATATCA | 0.099
CGACCCGC | -0.119
GTTTTTTA | -0.0307
ACGCCTGG | -0.0426
CATAATAG | 0.241
CGGGCAAC | -0.0371
GTACCACA | 0.115
CAAATAGC | 0.111
CTCCTGTA | 0.0328
CAGTGGCC | -0.205
CCCCTTGC | -0.222
ACGACCGC | -0.109
CTTATAAA | 0.154
CGCAAACA | 0.193
TCAGAAGA | -0.13

Some of the entries so far, with tabs.
Sequence	PBM E-score
AGAAGATA	0.188
CGTTTATA	0.23
CCATTAAA	-0.0244
CTCCGCAA	-0.233
CACTGGCC	-0.2
CCTCGAGG	0.0694
CTTCCGGC	0.069
CCGAGTCC	-0.156
AAGATGCA	0.216
TAATTGAA	-0.0513
AGACGAAA	0.205
CCAGCGCC	-0.312
GATCCCGC	0.156
CGAGATCG	-0.0928
AATCCCAT	0.141
ATAAATGA	0.156
CGCGTCCA	-0.0924
GGATACCC	-0.0478
CGCCTTTC	-0.135
ATGCACCA	-0.112
AACTTTAC	0.039
AAGCGAAT	0.223
CCGGTAGG	-0.163
GCTTCTCA	-0.0109
CACTCGGC	0.0804
CCTCGGGA	-0.13
AACTACTC	0.177
AGTCTTTC	-0.154
AGCTTCAT	0.103
CCATATCA	0.099
CGACCCGC	-0.119
GTTTTTTA	-0.0307
ACGCCTGG	-0.0426
CATAATAG	0.241
CGGGCAAC	-0.0371
GTACCACA	0.115
CAAATAGC	0.111
CTCCTGTA	0.0328
CAGTGGCC	-0.205
CCCCTTGC	-0.222
ACGACCGC	-0.109
CTTATAAA	0.154

Looked up above:
Value for CCCCTTGC under PBM E-score: -0.222
Value for AGCTTCAT under PBM E-score: 0.103
Value for ATGCACCA under PBM E-score: -0.112
Value for TCAGAAGA under PBM E-score: -0.13

The list goes on.

Sequence | PBM E-score
ACTAGTTA | 0.025
ACGGAACG | 0.175
CCTAATAC | 0.113
GTCTAGTA | 0.22
ATGGCTGC | -0.0428
CCACAACG | -0.153
TATCCGGA | 0.142
GCCGTAAA | 0.138
GCCATGCA | -0.0503
ATTCTTTA | -0.0489
CCGGGGCG | -0.146
CAATCGTG | -0.0307
CATCCACG | 0.0707
AATCAGAC | 0.133
CAGAGCTG | -0.166
CTGGGAAA | 0.0445
AGTCATAA | -0.0314
GGAGAAAA | -0.0389
TCATCTAA | 0.129
AGATGACA | 0.0835
AGATTGCG | 0.0202
GCGCGCTA | 0.146
GTATCTCA | 0.196
CACCGTCA | -0.131
GGTCGAAC | -0.0747

Sequence | PBM E-score
GGTAGTAA | 0.0106
AAGGTCGA | 0.146
CTATGTAC | 0.117
GAGACGGC | -0.037
CGGCACCA | -0.14
AACTAATC | 0.233
GATTAAGA | 0.104
AATACCAA | 0.142
GGATCAGA | -0.042
AGGAAAAT | 0.113
ATTACCAC | 0.151
AATATATC | 0.156
GAAGCTTA | 0.171
AACTGACA | 0.0152
GAACGGTC | -0.15
TCTTTTCA | 0.0867
AAGCCATA | 0.00622
ACGCTCCC | -0.199
ACCGGAGT | -0.0595
GGCTTTAC | 0.00035
AAATTGCG | 0.0806
AATAGACA | -0.0233
AGGAGAAA | -0.085
CTCTATGA | -0.0648
GACCACTA | 0.171

Sequence | PBM E-score
GTGTACAA | 0.0823
ATCAGTCA | 0.122
ATGAACTC | -0.0112
CTCTTAGC | -0.0546
GAATAACA | 0.26
AGGTTTGG | -0.0675
ACAAGTCC | -0.144
ATCTAGAT | -0.0604
CAGTGCCA | -0.262
GCCCTTAA | -0.0839
GAAGGGTC | -0.259
AGCGGCGC | -0.253
CGACATCA | 0.137
GGGAGCCA | -0.242
AGATAGTA | 0.213
GAACTACA | 0.021
GTGATCCA | -0.115
AGACATAT | 0.0819
CACTCGTC | -0.0573
AAAGCCGG | 0.0406
TATCGCCA | 0.132
CATCACAA | 0.123
CCCGACGG | -0.0846
ATAAGTTC | 0.227
TATCGACA | 0.112

Sequence | PBM E-score
ACAAGTCT | -0.0633
CTAAGGGA | -0.0345
TACGTGAA | 0.0132
AATGCCTG | -0.0859
AGCGGTCC | -0.0708
CTACTCAG | -0.0922
GCGGCCTA | -0.155
CATGCCAC | 0.0211
AACAAGAG | 0.0102
CTTTCACA | 0.0544
AAAATTAA | 0.105
CAGCACGA | 0.00097
GAACGGCA | 0.048
GCCGCTAC | -0.0553
AGTATGTG | 0.14
CACGTAAC | 0.0354
GGGATTTA | -0.0186
ATGAGCTA | 0.154
AAGCTGTG | 0.07
ACCATCAT | 0.0905
GTTAAATA | 0.102
TAAGTCTA | -0.11
GCACTGAA | -0.0379
ATCAGCTC | 0.103
ATGTAGTA | 0.165

Sequence | PBM E-score
CGGCCCCC | -0.408
CTTTAGGA | -0.062
TGTTGAAA | 0.216
CTAACCCA | -0.0281
TGTGAGAA | 0.171
GAGAGTCA | -0.0414
TCCACCCA | -0.012
ACGGGATC | -0.0232
AATTGTGA | 0.0921
CGGAGTTC | 0.0362
AGTCCCAA | -0.00919
AACATTCC | 0.0599
CGATTCCA | -0.0744
GGCCGCCC | -0.292
GGTTAACC | -0.121
AAGCGTCA | -0.033
AACCTTTG | -0.127
ATGAAACC | 0.113
AGGTTACC | 0.0613
